Assay results taken from PMC9352874.
These are yes or no findings as the source states them, for the method shown. In cells and extracts the contact can be indirect. Some binding calls cover weakened binding; strength is not graded here.

Sequences of proteins named here, by UniProt entry; tags and fusion partners are left off.
UniProt O95863: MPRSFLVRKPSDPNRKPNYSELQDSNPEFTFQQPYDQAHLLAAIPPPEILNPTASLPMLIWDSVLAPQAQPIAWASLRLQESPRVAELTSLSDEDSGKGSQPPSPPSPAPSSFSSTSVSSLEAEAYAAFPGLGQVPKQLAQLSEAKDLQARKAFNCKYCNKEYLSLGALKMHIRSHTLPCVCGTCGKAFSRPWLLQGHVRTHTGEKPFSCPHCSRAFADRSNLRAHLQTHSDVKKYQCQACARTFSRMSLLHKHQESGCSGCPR

T1: DUB3 (UniProt Q6R6M4)
T1 sequence: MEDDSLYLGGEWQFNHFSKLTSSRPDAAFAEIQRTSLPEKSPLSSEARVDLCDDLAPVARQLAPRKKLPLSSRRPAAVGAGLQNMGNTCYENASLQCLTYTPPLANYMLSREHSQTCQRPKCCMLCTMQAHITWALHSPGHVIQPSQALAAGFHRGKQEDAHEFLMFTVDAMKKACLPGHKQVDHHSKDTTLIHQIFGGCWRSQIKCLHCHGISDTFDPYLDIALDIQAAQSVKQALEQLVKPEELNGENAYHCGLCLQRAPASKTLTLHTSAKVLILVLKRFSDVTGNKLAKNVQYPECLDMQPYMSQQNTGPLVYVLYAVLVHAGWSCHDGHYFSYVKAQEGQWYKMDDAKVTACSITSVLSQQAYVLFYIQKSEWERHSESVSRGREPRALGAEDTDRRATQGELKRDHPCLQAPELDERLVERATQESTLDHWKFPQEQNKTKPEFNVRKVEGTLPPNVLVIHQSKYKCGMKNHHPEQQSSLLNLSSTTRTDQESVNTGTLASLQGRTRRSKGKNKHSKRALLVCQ

T2: nucleoredoxin (NXN) (UniProt Q6DKJ4)
T2 sequence: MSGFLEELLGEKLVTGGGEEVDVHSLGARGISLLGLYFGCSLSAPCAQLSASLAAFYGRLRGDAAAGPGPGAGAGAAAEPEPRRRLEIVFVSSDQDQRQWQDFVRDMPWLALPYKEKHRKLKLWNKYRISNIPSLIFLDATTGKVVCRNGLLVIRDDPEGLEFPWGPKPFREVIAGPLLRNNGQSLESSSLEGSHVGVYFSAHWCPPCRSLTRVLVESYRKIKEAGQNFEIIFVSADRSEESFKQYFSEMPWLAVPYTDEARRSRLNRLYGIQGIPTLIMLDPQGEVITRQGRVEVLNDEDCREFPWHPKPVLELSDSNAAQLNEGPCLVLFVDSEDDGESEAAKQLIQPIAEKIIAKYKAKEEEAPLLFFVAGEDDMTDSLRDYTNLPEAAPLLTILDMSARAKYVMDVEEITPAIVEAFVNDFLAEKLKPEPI


Tests used:
DUB3 [1] = target: T1, DUB3; test: co-IP; 293 T and PLC-8024 cells lysed with RIPA lysis buffer; antibody incubated with the lysates at 4 °C overnight, Protein A/G-Agarose beads, Western blot
nucleoredoxin (NXN) = target: T2, nucleoredoxin (NXN); test: as above
DUB3 [2] = target: T1, DUB3; test: co-IP; total lysates of cells with or without NXN overexpression, cells treated with MG132; IP with anti-DUB3 or anti-Snail Ab, Western blot
Snail (encoded by SNAI1) = Snail (encoded by SNAI1) (UniProt O95863); test: co-IP; 293 T and PLC-8024 cells lysed with RIPA lysis buffer; antibody incubated with the lysates at 4 °C overnight, Protein A/G-Agarose beads, Western blot

binding (DUB3 [1]) | binding (nucleoredoxin (NXN)) | binding (DUB3 [2]) | binding (Snail (encoded by SNAI1)) | Molecule
binds | no binding | binds | – | Snail (encoded by SNAI1) (from UniProt O95863 1-264)
binds | – | – | no binding | nucleoredoxin (NXN) (protein, UniProt Q6DKJ4 1-435) MSGFLEELLGEKLVTGGGEEVDVHSLGARGISLLGLYFGCSLSAPCAQLSASLAAFYGRLRGDAAAGPGPGAGAGAAAEPEPRRRLEIVFVSSDQDQRQWQDFVRDMPWLALPYKEKHRKLKLWNKYRISNIPSLIFLDATTGKVVCRNGLLVIRDDPEGLEFPWGPKPFREVIAGPLLRNNGQSLESSSLEGSHVGVYFSAHWCPPCRSLTRVLVESYRKIKEAGQNFEIIFVSADRSEESFKQYFSEMPWLAVPYTDEARRSRLNRLYGIQGIPTLIMLDPQGEVITRQGRVEVLNDEDCREFPWHPKPVLELSDSNAAQLNEGPCLVLFVDSEDDGESEAAKQLIQPIAEKIIAKYKAKEEEAPLLFFVAGEDDMTDSLRDYTNLPEAAPLLTILDMSARAKYVMDVEEITPAIVEAFVNDFLAEKLKPEPI
